Test results published in PMC10587311.
These are yes or no findings as the source states them, for the method shown. In cells and extracts the contact can be indirect. Some binding calls cover weakened binding; strength is not graded here.

Chains of the proteins cited; added tags and fusions are not shown.
UniProt Q9Z1E3: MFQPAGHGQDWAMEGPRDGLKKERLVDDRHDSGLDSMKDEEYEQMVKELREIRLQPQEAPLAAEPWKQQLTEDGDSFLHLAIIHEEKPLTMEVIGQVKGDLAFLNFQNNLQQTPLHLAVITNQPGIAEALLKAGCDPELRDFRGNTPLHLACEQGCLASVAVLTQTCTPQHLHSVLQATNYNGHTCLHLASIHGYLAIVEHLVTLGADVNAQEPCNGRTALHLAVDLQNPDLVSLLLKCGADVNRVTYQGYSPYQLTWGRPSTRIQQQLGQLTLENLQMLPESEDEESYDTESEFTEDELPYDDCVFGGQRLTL

Molecular target: IκBα (mouse (endogenous in HL-1)) (UniProt Q9Z1E3)
Test: co-IP; 7 μg IκBα antibody crosslinked (DSS) to Protein A/G magnetic beads; HL-1 cell lysates with 1500 μg total protein, overnight at 4 °C; cells transfected with control plasmid (OE-NC) or lnc9456 overexpression plasmid (OE-lnc9456) for 48 h; western blotting of the eluate

B1: Ras-GTPase-activating protein (SH3 domain)-binding protein 2 (G3BP2) (protein, UniProt P97379 1-482)
chain: MVMEKPSPLLVGREFVRQYYTLLNKAPEYLHRFYGRNSSYVHGGVDASGKPQEAVYGQNDIHHKVLSLNFSECHTKIRHVDAHATLSDGVVVQVMGLLSNSGQPERKFMQTFVLAPEGSVPNKFYVHNDMFRYEDEVFGDSEPELDEESEDEVEEEQEDRQPSPEPVQENANSAYYDAHPVTNGIEEPLEESSHEPEPEPESETKTEELKPQVEEKHLEELEEKSATPPPAEPASLPQEPPKAFSWASVTSKNLPPSGTVSSSGIPPHVKAPVSQPRVDAKPEVQSQPPRVREQRPRERPGFPPRGPRPGRGDMEQNDSDNRRIIRYPDSHQLFVGNLPHDIDENELKEFFMSFGNVVELRINTKGVGGKLPNFGFVVFDDSEPVQRILIAKPIMFRGEVRLNVEEKKTRAARERETRGGGDDRRDIRRNDRGPGGPRGIVGGGMMRDRDGRGPPPRGGMTQKLGSGRGTGQMEGRFTGQRR
- binding: binds
